# Reference: the supplement of paper PMC10849652
# By UniProt entry, the sequences of proteins in these tests, tags left out. Where a name states a change or a piece, a line headed by the entry shows the natural chain unless it says otherwise.
# UniProt Q9Y2E8: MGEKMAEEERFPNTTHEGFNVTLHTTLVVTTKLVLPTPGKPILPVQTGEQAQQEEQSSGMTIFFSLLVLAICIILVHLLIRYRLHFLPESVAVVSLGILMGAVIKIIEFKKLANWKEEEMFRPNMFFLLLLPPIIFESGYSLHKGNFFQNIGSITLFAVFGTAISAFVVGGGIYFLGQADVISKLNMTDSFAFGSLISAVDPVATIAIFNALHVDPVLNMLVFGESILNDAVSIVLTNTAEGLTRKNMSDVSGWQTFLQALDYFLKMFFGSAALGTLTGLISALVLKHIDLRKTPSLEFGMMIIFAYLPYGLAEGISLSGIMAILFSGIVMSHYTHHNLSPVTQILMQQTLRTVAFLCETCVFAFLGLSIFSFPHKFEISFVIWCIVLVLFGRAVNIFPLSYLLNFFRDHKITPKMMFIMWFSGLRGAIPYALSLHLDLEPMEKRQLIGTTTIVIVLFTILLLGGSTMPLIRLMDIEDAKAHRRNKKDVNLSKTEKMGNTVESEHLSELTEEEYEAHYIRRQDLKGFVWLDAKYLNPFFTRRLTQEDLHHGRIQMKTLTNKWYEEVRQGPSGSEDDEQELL
# UniProt Q6J4K2: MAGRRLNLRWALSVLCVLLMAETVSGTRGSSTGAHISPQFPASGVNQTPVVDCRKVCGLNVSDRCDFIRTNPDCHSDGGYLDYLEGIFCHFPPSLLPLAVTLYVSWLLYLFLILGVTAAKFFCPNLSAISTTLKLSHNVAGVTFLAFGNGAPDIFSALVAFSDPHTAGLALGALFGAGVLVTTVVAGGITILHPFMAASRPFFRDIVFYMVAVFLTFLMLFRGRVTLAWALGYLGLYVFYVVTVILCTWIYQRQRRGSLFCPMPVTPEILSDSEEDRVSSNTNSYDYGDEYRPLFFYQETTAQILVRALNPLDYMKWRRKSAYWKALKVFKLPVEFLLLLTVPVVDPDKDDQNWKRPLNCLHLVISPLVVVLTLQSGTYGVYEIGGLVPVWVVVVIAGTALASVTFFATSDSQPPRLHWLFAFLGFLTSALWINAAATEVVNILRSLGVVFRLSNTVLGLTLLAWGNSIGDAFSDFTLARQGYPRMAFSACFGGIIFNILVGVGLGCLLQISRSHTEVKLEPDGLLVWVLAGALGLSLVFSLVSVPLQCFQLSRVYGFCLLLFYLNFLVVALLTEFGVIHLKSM
# UniProt Q13425: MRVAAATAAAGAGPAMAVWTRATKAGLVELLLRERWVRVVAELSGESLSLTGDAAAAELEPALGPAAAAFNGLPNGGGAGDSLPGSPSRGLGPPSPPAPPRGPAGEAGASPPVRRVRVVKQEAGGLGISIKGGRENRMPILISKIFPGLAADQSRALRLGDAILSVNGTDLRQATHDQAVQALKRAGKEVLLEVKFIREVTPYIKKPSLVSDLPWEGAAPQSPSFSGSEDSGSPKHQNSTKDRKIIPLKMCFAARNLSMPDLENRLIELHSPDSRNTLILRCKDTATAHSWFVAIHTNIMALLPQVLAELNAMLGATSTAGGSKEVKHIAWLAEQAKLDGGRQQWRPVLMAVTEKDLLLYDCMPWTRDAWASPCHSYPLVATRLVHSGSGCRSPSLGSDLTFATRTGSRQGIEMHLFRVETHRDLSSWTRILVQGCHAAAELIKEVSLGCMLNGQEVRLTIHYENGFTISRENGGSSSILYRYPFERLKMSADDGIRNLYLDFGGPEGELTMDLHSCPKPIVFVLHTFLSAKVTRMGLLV
# UniProt O75971: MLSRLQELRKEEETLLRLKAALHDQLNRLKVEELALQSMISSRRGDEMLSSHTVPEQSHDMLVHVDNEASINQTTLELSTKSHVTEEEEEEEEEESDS
# UniProt P51532, whole entry, looked up: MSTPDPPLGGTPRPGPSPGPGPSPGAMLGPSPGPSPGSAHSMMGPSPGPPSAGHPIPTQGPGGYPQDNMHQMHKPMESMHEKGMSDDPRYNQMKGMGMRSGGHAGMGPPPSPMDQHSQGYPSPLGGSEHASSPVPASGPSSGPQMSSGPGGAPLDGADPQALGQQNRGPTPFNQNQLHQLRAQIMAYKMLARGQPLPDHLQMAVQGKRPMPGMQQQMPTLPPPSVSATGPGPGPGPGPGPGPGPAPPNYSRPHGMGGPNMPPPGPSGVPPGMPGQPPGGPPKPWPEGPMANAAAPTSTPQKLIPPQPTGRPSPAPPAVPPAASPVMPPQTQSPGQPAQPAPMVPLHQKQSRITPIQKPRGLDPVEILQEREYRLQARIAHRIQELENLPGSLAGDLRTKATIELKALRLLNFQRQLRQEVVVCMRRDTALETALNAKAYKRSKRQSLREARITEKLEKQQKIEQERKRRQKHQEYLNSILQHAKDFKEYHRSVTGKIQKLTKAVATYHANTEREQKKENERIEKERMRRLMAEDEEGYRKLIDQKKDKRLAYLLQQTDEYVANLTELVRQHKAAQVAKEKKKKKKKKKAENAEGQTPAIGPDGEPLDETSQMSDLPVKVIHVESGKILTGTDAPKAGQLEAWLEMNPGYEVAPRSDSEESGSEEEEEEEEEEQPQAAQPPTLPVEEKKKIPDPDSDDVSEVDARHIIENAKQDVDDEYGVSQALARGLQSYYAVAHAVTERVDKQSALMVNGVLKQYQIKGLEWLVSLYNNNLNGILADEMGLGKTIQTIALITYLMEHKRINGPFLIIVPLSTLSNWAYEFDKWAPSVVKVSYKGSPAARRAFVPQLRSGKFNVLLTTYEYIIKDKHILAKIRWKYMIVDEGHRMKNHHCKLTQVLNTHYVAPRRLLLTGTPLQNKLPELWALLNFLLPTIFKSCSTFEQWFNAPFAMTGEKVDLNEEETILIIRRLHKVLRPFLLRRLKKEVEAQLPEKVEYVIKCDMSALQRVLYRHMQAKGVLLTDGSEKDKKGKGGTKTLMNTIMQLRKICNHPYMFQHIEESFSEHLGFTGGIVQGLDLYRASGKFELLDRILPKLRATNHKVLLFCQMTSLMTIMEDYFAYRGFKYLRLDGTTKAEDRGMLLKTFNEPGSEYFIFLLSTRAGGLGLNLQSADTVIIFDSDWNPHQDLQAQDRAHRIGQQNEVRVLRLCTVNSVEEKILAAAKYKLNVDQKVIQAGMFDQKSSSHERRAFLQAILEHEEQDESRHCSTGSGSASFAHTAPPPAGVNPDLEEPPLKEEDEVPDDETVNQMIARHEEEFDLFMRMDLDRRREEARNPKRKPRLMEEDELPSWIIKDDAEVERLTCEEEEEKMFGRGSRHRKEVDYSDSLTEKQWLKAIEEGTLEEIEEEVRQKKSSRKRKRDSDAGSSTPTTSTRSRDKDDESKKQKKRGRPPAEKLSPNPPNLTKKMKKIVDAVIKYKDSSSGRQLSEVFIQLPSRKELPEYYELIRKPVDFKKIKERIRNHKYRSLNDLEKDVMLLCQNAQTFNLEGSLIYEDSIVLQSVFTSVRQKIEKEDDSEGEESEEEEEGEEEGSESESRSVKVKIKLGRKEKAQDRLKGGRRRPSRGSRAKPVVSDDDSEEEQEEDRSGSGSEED
# UniProt Q99717: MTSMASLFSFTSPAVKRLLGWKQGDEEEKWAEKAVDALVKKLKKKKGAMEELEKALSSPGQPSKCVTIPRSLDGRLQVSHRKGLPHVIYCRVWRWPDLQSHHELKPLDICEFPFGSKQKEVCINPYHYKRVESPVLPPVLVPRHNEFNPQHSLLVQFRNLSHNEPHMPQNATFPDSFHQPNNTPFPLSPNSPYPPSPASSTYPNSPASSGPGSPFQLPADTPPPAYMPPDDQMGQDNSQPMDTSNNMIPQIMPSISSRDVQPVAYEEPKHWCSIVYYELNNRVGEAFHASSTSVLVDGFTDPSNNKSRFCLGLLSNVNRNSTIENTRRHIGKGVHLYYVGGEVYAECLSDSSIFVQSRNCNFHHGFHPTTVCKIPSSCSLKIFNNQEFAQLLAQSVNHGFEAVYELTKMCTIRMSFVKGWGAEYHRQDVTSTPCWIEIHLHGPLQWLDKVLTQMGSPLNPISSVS
# UniProt Q9H0W8: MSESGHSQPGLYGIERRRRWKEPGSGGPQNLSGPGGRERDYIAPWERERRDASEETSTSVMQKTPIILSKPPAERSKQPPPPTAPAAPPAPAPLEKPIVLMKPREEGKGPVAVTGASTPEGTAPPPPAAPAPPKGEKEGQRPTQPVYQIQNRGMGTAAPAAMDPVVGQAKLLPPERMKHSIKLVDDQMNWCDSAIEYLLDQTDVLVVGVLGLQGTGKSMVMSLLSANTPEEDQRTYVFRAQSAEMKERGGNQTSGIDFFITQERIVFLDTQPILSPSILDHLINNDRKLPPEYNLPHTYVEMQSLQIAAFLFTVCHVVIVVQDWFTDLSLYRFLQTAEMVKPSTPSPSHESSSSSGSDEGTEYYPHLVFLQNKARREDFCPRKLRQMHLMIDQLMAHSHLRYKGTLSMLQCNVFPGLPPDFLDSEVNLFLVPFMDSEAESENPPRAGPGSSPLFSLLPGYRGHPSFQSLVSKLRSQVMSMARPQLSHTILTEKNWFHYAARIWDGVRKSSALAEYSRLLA
# UniProt P35711: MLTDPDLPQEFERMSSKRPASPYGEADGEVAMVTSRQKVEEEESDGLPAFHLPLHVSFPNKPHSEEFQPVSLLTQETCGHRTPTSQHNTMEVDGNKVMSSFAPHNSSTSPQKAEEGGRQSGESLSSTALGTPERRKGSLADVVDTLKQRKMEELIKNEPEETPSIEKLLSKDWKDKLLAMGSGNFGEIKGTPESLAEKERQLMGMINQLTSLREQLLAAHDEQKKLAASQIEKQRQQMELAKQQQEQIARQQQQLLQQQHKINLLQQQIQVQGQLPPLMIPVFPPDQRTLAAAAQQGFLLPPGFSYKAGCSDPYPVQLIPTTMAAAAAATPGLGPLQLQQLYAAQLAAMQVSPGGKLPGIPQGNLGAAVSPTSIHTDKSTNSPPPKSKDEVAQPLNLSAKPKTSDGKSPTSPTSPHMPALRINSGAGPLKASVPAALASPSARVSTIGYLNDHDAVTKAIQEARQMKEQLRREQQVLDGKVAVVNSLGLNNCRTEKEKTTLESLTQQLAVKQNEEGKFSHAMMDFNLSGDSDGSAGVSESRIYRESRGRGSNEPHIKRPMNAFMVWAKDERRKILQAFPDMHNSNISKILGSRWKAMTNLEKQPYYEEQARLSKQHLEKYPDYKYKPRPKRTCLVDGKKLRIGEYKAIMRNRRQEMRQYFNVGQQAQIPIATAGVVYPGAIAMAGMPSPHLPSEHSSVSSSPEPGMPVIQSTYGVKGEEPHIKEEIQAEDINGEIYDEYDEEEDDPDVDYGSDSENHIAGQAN
# UniProt Q9NRH2: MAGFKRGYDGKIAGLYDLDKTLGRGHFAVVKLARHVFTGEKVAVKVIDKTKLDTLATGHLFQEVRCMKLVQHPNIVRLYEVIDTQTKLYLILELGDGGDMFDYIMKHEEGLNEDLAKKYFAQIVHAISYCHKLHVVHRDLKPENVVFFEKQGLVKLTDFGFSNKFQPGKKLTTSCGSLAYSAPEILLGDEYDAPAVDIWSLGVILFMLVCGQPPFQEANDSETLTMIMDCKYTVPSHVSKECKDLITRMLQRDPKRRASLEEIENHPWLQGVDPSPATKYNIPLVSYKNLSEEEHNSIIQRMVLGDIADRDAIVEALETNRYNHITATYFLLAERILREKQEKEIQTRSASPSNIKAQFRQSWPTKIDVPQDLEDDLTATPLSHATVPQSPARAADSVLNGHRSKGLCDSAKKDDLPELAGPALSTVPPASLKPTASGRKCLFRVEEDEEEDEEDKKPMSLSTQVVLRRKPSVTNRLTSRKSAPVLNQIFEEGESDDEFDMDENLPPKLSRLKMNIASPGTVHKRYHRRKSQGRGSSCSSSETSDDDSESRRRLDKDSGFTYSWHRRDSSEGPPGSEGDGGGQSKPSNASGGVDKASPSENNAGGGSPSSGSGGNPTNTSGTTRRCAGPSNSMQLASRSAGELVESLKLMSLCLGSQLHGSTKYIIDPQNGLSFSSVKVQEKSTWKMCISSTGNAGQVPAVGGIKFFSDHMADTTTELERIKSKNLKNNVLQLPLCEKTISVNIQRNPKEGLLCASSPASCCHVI
# UniProt Q86T20: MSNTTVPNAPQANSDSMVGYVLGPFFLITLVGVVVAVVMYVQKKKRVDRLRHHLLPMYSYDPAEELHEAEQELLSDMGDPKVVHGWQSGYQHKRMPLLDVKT
# UniProt Q5SQN1: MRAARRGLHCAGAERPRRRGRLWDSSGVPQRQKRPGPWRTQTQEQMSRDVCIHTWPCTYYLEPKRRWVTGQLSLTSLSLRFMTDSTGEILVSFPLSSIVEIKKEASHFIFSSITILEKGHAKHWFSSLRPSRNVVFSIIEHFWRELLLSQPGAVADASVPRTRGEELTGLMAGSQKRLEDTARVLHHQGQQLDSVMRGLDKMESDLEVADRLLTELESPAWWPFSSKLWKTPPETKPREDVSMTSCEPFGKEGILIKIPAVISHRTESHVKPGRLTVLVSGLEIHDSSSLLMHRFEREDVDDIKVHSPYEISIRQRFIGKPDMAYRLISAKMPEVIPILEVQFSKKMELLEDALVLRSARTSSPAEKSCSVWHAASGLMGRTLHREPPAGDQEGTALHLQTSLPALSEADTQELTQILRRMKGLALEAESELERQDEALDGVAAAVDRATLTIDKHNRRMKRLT
# Some of the results follow.
# Experiments:
# Assay in all cases: log2 fold change, soluble protein after heating vs DMSO (PISA); higher = thermal stabilisation; K562 cells, 10 uM, 30 min; active = over 0.2 and 3.5 SD of the protein, either way, in both replicates (recomputed)
# bafetinib = compound: Cc1ccc(NC(=O)c2ccc(CN3CC[C@H](N(C)C)C3)c(C(F)(F)F)c2)cc1Nc1nccc(-c2cncnc2)n1 [bafetinib]
# Method in brief: (§1)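 Soluble protein was defined as the supernatant after 21,000xg for 90 min. It came from K562 cells at 2×10^6 cells/mL given 10 μM compound for 30 min, heated in aliquots for 3 min across 48°C-58°C, pooled, and extracted in PBS with 0.5% NP-40 at 4°C, and was quantified by TMTpro 16plex LC-MS/MS with equalised channel sums. Thermal stability against control samples, from duplicates, is reported as log2 fold change.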
# nilotinib = compound: Cc1cn(-c2cc(NC(=O)c3ccc(C)c(Nc4nccc(-c5cccnc5)n4)c3)cc(C(F)(F)F)c2)cn1 [nilotinib]
# Method in brief: as §1
# [1] = compound: Cc1nc(Nc2n[nH]c3c2CN(C(=O)N[C@H](CN(C)C)c2ccccc2)C3(C)C)c2sccc2n1
# Method in brief: as §1
# dasatinib = compound: Cc1nc(Nc2ncc(C(=O)Nc3c(C)cccc3Cl)s2)cc(N2CCN(CCO)CC2)n1 [dasatinib]
# Method in brief: as §1
# [2] = compound: Cc1ncc(-c2ccnc(Nc3ccc(S(C)(=O)=O)cc3)n2)n1C(C)C
# Method in brief: as §1
# [3] = compound: Cn1cc(-c2ccc3c(c2)CCN3C(=O)Cc2cccc(C(F)(F)F)c2)c2c(N)ncnc21
# Method in brief: as §1
# tipifarnib = compound: Cn1cncc1[C@@](N)(c1ccc(Cl)cc1)c1ccc2c(c1)c(-c1cccc(Cl)c1)cc(=O)n2C [tipifarnib]
# Method in brief: as §1
# mubritinib = compound: FC(F)(F)c1ccc(/C=C/c2nc(COc3ccc(CCCCn4ccnn4)cc3)co2)cc1 [mubritinib]
# Method in brief: as §1
# [4] = compound: NC(=O)Nc1cc(-c2cccc(F)c2)sc1C(=O)N[C@H]1CCCNC1
# Method in brief: as §1
# [5] = compound: NC(=O)c1cnc(N[C@@H]2CCCC[C@@H]2N)nc1Nc1cccc(-n2nccn2)c1
# Method in brief: as §1
# [6] = compound: NC1(c2ccc(-c3nc4ccn5c(=O)[nH]nc5c4cc3-c3ccccc3)cc2)CCC1
# Method in brief: as §1
# [7] = compound: NCC(=O)Nc1ccc(-n2nc(C(F)(F)F)cc2-c2ccc3c(ccc4ccccc43)c2)cc1
# Method in brief: as §1
# entinostat = compound: Nc1ccccc1NC(=O)c1ccc(CNC(=O)OCc2cccnc2)cc1 [entinostat]
# Method in brief: as §1
# citarinostat = compound: O=C(CCCCCCNC(=O)c1cnc(N(c2ccccc2)c2ccccc2Cl)nc1)NO [citarinostat]
# Method in brief: as §1
# silmitasertib = compound: O=C(O)c1ccc2c(c1)nc(Nc1cccc(Cl)c1)c1ccncc12 [silmitasertib]
# Method in brief: as §1
# [8] = compound: O=C1NC(=O)C(c2cnc3ccccn23)=C1c1cn2c3c(cc(F)cc13)CN(C(=O)N1CCCCC1)CC2
# Method in brief: as §1
# [9] = compound: c1cc(OCCN2CCCCC2)cc(-c2n[nH]c3ccc(-c4nnc[nH]4)cc23)c1
# Method in brief: as §1
# [10] = compound: Cc1cccc(CC(=O)N2CCc3c2ccc(-c2cn(C)c4ncnc(N)c24)c3F)n1
# Method in brief: as §1
# [11] = compound: Cn1cc(-c2ccc3nnc(C(F)(F)c4ccc5ncccc5c4)n3n2)cn1
# Method in brief: as §1
# vorinostat = compound: O=C(CCCCCCC(=O)Nc1ccccc1)NO [vorinostat]
# Method in brief: as §1
Target,log2 fold change (bafetinib),log2 fold change (nilotinib),log2 fold change [1],log2 fold change (dasatinib),log2 fold change [2],log2 fold change [3],log2 fold change (tipifarnib),log2 fold change (mubritinib),log2 fold change [4],log2 fold change [5],log2 fold change [6],log2 fold change [7],log2 fold change (entinostat),log2 fold change (citarinostat),log2 fold change (silmitasertib),log2 fold change [8],log2 fold change [9],log2 fold change [10],log2 fold change [11],log2 fold change (vorinostat)
SLC9A8 isoform 2 (UniProt Q9Y2E8),inactive: -0.017,inactive: -0.059,inactive: -0.044,inactive: -0.001,inactive: 0.045,inactive: -0.17,inactive: 0.016,inactive: -0.04,inactive: -0.007,inactive: -0.092,inactive: -0.147,inactive: -0.018,inactive: -0.002,inactive: 0.138,inactive: 0.008,inactive: -0.052,inactive: -0.139,–,–,–
SLC8B1 (UniProt Q6J4K2),inactive: -0.149,–,–,inactive: -0.012,–,inactive: -0.019,inactive: 0.058,–,–,inactive: -0.078,–,inactive: 0.034,–,–,–,–,–,inactive: 0.006,inactive: 0.103,inactive: -0.031
SNTB2 (UniProt Q13425),inactive: 0.097,inactive: -0.032,inactive: -0.094,inactive: -0.029,inactive: -0.068,inactive: 0.096,inactive: 0.077,–,inactive: -0.072,inactive: -0.024,–,inactive: -0.081,inactive: -0.033,inactive: 0.031,–,inactive: -0.002,inactive: 0.031,inactive: -0.061,inactive: 0.043,inactive: 0.021
SNAPC5 (UniProt O75971),inactive: 0.173,inactive: -0.197,inactive: 0.106,inactive: -0.009,inactive: 0.04,–,inactive: 0.091,–,–,inactive: 0.052,–,inactive: 0.019,–,–,–,inactive: -0.03,–,inactive: -0.073,–,inactive: -0.154
SON isoform 9 (UniProt P18583),inactive: 0.014,inactive: 0.176,inactive: -0.335,inactive: 0.062,inactive: 0.146,–,inactive: 0,–,inactive: 0.033,inactive: -0.047,–,inactive: 0.032,inactive: -0.097,inactive: -0.095,–,inactive: 0.128,inactive: 0.158,inactive: -0.084,inactive: 0.062,inactive: 0.065
SMARCA4 (UniProt P51532),inactive: 0.149,–,–,inactive: 0.118,–,inactive: -0.036,inactive: 0.197,inactive: 0.101,inactive: -0.144,inactive: -0.056,inactive: 0.048,inactive: -0.201,inactive: 0.012,inactive: 0.102,inactive: -0.017,inactive: -0.067,inactive: -0.115,inactive: -0.118,inactive: 0.033,inactive: 0.038
SMAD5 (UniProt Q99717),inactive: -0.159,inactive: -0.062,inactive: -0.005,inactive: -0.192,inactive: 0.118,inactive: -0.154,–,inactive: 0.209,inactive: -0.008,inactive: 0.073,inactive: 0.066,inactive: -0.022,inactive: 0.124,–,inactive: 0.137,inactive: -0.143,–,inactive: 0.136,inactive: -0.184,inactive: 0.072
SMG9 (UniProt Q9H0W8),inactive: 0.011,–,–,inactive: -0.164,–,inactive: -0.022,inactive: 0.25,inactive: 0.005,inactive: -0.018,inactive: -0.001,inactive: -0.073,inactive: 0.011,inactive: -0.052,–,inactive: -0.239,inactive: -0.029,–,inactive: -0.078,–,inactive: 0.006
SP6 (UniProt Q3SY56),inactive: -0.154,inactive: -0.148,inactive: 0.205,inactive: -0.035,inactive: 0.009,inactive: 0.037,inactive: 0.058,inactive: -0.118,inactive: -0.062,inactive: 0.007,inactive: -0.144,inactive: 0.137,inactive: -0.056,inactive: -0.104,inactive: -0.021,inactive: -0.016,inactive: 0.101,–,inactive: -0.043,–
SOX5 (UniProt P35711),inactive: -0.06,active: -0.437,inactive: -0.011,–,inactive: 0.211,inactive: 0.042,inactive: 0.027,inactive: 0.064,inactive: 0.035,inactive: -0.064,inactive: -0.015,inactive: 0.03,inactive: -0.129,–,inactive: 0.018,–,–,–,inactive: -0.039,–
SNRK (UniProt Q9NRH2),–,–,–,inactive: -0.061,–,–,inactive: -0.079,–,inactive: -0.19,–,–,–,inactive: -0.046,inactive: 0.26,–,–,inactive: 0.325,–,–,–
SMIM29 (UniProt Q86T20),–,–,–,inactive: 0.225,–,inactive: -0.133,–,–,inactive: 0,–,–,–,inactive: -0.056,–,–,–,–,–,–,–
SLC9A6 isoform 3 (UniProt Q92581),inactive: -0.096,–,–,inactive: 0.065,–,inactive: 0.048,inactive: 0.028,–,–,inactive: 0.009,–,–,–,inactive: -0.066,–,–,inactive: 0.172,–,–,–
SMAD3 (UniProt P84022),–,–,–,inactive: -0.115,–,inactive: -0.121,inactive: 0.031,–,–,inactive: 0.019,–,inactive: 0.007,–,–,–,–,–,inactive: -0.018,inactive: -0.095,inactive: -0.015
SNAP47 (UniProt Q5SQN1),–,–,–,–,–,–,–,–,–,–,–,inactive: -0.157,–,–,–,inactive: 0.103,–,–,–,–

# An excerpt of these results, tab-delimited:
Target	log2 fold change (bafetinib)	log2 fold change (nilotinib)	log2 fold change [1]	log2 fold change (dasatinib)	log2 fold change [2]	log2 fold change [3]	log2 fold change (tipifarnib)	log2 fold change (mubritinib)	log2 fold change [4]	log2 fold change [5]	log2 fold change [6]	log2 fold change [7]	log2 fold change (entinostat)	log2 fold change (citarinostat)	log2 fold change (silmitasertib)	log2 fold change [8]	log2 fold change [9]	log2 fold change [10]	log2 fold change [11]	log2 fold change (vorinostat)
SMARCA4 (UniProt P51532)	inactive: 0.149	–	–	inactive: 0.118	–	inactive: -0.036	inactive: 0.197	inactive: 0.101	inactive: -0.144	inactive: -0.056	inactive: 0.048	inactive: -0.201	inactive: 0.012	inactive: 0.102	inactive: -0.017	inactive: -0.067	inactive: -0.115	inactive: -0.118	inactive: 0.033	inactive: 0.038
SOX5 (UniProt P35711)	inactive: -0.06	active: -0.437	inactive: -0.011	–	inactive: 0.211	inactive: 0.042	inactive: 0.027	inactive: 0.064	inactive: 0.035	inactive: -0.064	inactive: -0.015	inactive: 0.03	inactive: -0.129	–	inactive: 0.018	–	–	–	inactive: -0.039	–
